Source: article PMC12561916
No constants are given. Whether binding was seen depends on the method and setting. Binding seen in cells or lysates may run through a third protein. Some binding calls cover weakened binding; strength is not graded here.

Sequences of proteins named here, by UniProt entry; tags and fusion partners are left off.
UniProt O00264: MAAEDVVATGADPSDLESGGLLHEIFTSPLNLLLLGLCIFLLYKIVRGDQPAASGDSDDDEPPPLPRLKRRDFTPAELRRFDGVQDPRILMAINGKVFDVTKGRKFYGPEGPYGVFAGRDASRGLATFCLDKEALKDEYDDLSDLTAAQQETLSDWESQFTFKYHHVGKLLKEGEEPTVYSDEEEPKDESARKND
UniProt P08670: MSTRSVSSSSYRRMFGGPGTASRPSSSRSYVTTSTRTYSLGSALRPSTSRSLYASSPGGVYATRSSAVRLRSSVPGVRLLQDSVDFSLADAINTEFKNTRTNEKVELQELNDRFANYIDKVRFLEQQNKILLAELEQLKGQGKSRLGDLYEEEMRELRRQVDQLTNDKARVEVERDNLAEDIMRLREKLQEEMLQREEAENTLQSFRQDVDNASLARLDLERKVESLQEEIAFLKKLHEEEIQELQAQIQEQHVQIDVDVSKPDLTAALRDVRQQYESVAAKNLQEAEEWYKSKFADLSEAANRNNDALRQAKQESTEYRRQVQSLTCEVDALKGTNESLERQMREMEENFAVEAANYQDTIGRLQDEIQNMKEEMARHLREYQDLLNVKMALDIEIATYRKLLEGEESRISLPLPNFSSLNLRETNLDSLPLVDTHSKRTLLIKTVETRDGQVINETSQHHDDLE

What was measured:
[1] = target: FLAG-tagged PGRMC1 (progesterone receptor membrane component 1) (human) (UniProt O00264); assay: co-IP; HEK293T co-transfected with FLAG-PGRMC1 and HA-tagged VIM or truncated fractions for 48 h; lysed in RIPA buffer with protease and phosphatase inhibitors; anti-[…] (Flag) affinity gel overnight at 4 °C; blot with HA antibody
[2] = target: FLAG-tagged PGRMC1 (progesterone receptor membrane component 1) (human) (UniProt O00264); assay: co-IP; 293T cells transfected with FLAG-PGRMC1 plasmid for 48 h; IP with anti-FLAG antibody or IgG control; blots for VIM and SPTBN1

binding [1] | binding [2] | Substance
binds |  | HA-tagged VIM, full length (from UniProt P08670 1-466)
 | binds | Vimentin (VIM), endogenous in HEK293T (from UniProt P08670 1-466)
